# Data: the supplement of paper PMC6331611
# ± gives the standard deviation of the averaged measurements. Whole data set: some 1,600 compounds, median “normalized growth (OD600, IQM-normalized) in LPM” near 1, cut for the lowest 2% near 0.014. Some of the results follow.
# Test system: Salmonella enterica serovar Typhimurium SL1344
# Assay: normalized growth (OD600, IQM-normalized) in LPM (fraction of plate interquartile mean); higher = more bacterial growth (less inhibition)
# Settings: LPM pH 5.8; 10 µM; 16 h
row,SMILES,normalized growth
1,Cc1c(-c2cnccn2)ssc1=S,0.976 ± 0.024
2,C[N+](C)(C)CC(=O)O,1.03 ± 0.01
3,O=C(O)c1ccccc1C(=O)Nc1ccc(S(=O)(=O)Nc2nccs2)cc1,0.919 ± 0.028
4,OCCN(CCO)c1nc(N2CCCCC2)c2nc(N(CCO)CCO)nc(N3CCCCC3)c2n1,1.02 ± 0.037
5,CN1CCN(C(c2ccccc2)c2ccccc2)CC1,1.07 ± 0.037
6,C[C@]12CC[C@@H]3c4ccc(OC(=O)c5ccccc5)cc4CC[C@H]3[C@@H]1CC[C@@H]2O,0.779 ± 0.061
7,O=C(CCCN1CCN(c2ccccn2)CC1)c1ccc(F)cc1,1.1 ± 0.056
8,C[C@H](CCC(=O)O)[C@H]1CC[C@H]2[C@@H]3[C@@H](O)C[C@@H]4C[C@H](O)CC[C@]4(C)[C@H]3CC[C@]12C,0.927 ± 0.084
9,CC1CC(OC(=O)c2ccccc2O)CC(C)(C)C1 (stereo not drawn),1.03 ± 0.028
10,NC[C@@H]1O[C@@H](O[C@H]2[C@H](O)[C@@H](O[C@H]3O[C@H](CO)[C@@H](O)[C@H](N)[C@H]3O)[C@H](N)C[C@@H]2N)[C@@H](O)[C@H](O)[C@H]1O,1.03 ± 0.017
11,N[C@@H](Cc1cc(I)c(Oc2ccc(O)c(I)c2)c(I)c1)C(=O)O [LIOTHYRONINE (L- isomer) SODIUM],1.06 ± 0.044
12,N[C@@H](Cc1cc(I)c(Oc2ccc(O)c(I)c2)c(I)c1)C(=O)O,1.63 ± 0.14
13,CN1CCC(=C2c3ccccc3Sc3ccccc32)CC1,1.09 ± 0.096
14,Nc1c2ccccc2nc2ccccc12,0.943 ± 0.018
15,NS(=O)(=O)c1cc2c(cc1C(F)(F)F)NCNS2(=O)=O,0.984 ± 0.035
16,C=C(C)[C@H]1CC=C(C)CC1,0.978 ± 0.024
17,NC(=O)CCCCC1CCSS1 (stereo not drawn),0.967 ± 0.061
18,N[C@@H](Cc1c[nH]c2ccccc12)C(=O)O,1.04 ± 0.095
19,O=C(OOC(=O)c1ccccc1)c1ccccc1,1.08 ± 0.046
20,CCC1(C)OC(=O)N(C)C1=O (stereo not drawn),1.05 ± 0.036
21,CC(O)Cn1cnc2c1c(=O)n(C)c(=O)n2C (stereo not drawn),0.921 ± 0.031
22,CS(=O)(=O)OCCCCOS(C)(=O)=O,0.919 ± 0.042
23,Cc1c(NC(=O)c2cccnc2)c(=O)n(-c2ccccc2)n1C,1.03 ± 0.04
24,CC[C@@H]1C(=O)OC[C@@H]1Cc1cncn1C,0.92 ± 0.024
25,CN1C(=O)CC[C@H]1c1cccnc1,1 ± 0.011
26,c1ccc2c(CC3=NCCN3)cccc2c1,0.783 ± 0.058
27,CC(=O)OCC(=O)[C@@]12OC(C)(C)O[C@@H]1C[C@H]1[C@@H]3C[C@H](F)C4=CC(=O)C=C[C@]4(C)[C@@]3(F)[C@@H](O)C[C@@]12C,1.18 ± 0.12

# Fetched one by one from the list above, two records:
row,SMILES,normalized growth
16,C=C(C)[C@H]1CC=C(C)CC1,0.978 ± 0.024
19,O=C(OOC(=O)c1ccccc1)c1ccccc1,1.08 ± 0.046

# Next part:

row,SMILES,normalized growth
1,CCN(CC)CC(=O)Nc1c(C)cccc1C,1.03 ± 0.045
2,O=C1NS(=O)(=O)c2ccccc21,1.07 ± 0.012
3,CC(=O)CC(c1ccccc1)c1c(O)c2ccccc2oc1=O (stereo not drawn),1.08 ± 0.036
4,O=c1oc2c(O)c(O)cc3c(=O)oc4c(O)c(O)cc1c4c23,0.455 ± 0.031
5,COc1cccc2c1C(=O)c1c(O)c3c(c(O)c1C2=O)C[C@@](O)(C(C)=O)C[C@@H]3O[C@H]1C[C@H](N)[C@H](O)[C@H](C)O1,0.946 ± 0.016
6,Cc1cn([C@H]2C=C[C@@H](CO)O2)c(=O)[nH]c1=O,1.1 ± 0.09
7,CC(=O)NS(=O)(=O)c1ccc(N)cc1,0.99 ± 0.04
8,C=CC1=C(C(=O)O)N2C(=O)[C@@H](NC(=O)/C(=N\O)c3csc(N)n3)[C@H]2SC1,0.0112 ± 0.00049
9,CN1C(CCl)Nc2cc(Cl)c(S(N)(=O)=O)cc2S1(=O)=O (stereo not drawn),1.08 ± 0.033
10,OCc1ccccc1O[C@@H]1O[C@H](CO)[C@@H](O)[C@H](O)[C@H]1O,0.988 ± 0.065
11,Nc1cc(N2CCCCC2)nc(N)[n+]1[O-],1.01 ± 0.051
12,C[C@]12CCC(=O)C=C1[C@@H]1C[C@@H]1[C@H]1[C@@H]3[C@@H]4C[C@@H]4[C@@]4(CCC(=O)O4)[C@@]3(C)CC[C@@H]12,1.07 ± 0.069
13,O=C(O)c1ccccc1OP(=O)(O)O,0.83 ± 0.1
14,Cc1ncc([N+](=O)[O-])n1CC(C)O (stereo not drawn),1.05 ± 0.015
15,C/C=C(/C(=C/C)c1ccc(O)cc1)c1ccc(O)cc1,1.04 ± 0.035
16,CC1=C(/C=C/C(C)=C/C=C/C(C)=C/CO)C(C)(C)CCC1,0.731 ± 0.088
17,CC(=O)NCCCCCC(=O)O,1.11 ± 0.034
18,O=c1n(CCCN2CCN(c3cccc(Cl)c3)CC2)nc2ccccn12,1.03 ± 0.052
19,O=C(O)c1cc(=O)[nH]c(=O)[nH]1,1.02 ± 0.041
20,C=C[C@H]1CN2CC[C@H]1C[C@H]2[C@H](O)c1ccnc2ccc(OC)cc12,1.03 ± 0.018
21,CC1(C)S[C@@H]2[C@H](NC(=O)[C@H](N)c3ccccc3)C(=O)N2[C@H]1C(=O)O,0.928 ± 0.07
22,Cc1nc2ccccn2c(=O)c1CCN1CCC(C(=O)c2ccc(F)cc2)CC1,0.979 ± 0.039
23,O=C(CCNNC(=O)c1ccncc1)NCc1ccccc1,1.067 ± 0.0068
24,CC(C)(C)CC(C)(C)c1cc(Cc2cc(C(C)(C)CC(C)(C)C)cc(-n3nc4ccccc4n3)c2O)c(O)c(-n2nc3ccccc3n2)c1,1.01 ± 0.063
25,NC(=O)c1cnccn1,1.01 ± 0.024
26,CC(=O)O[C@H]1C(=O)[C@@]2(C)[C@H]([C@H](OC(=O)c3ccccc3)[C@]3(O)C[C@H](OC(=O)[C@H](O)[C@@H](NC(=O)c4ccccc4)c4ccccc4)C(C)=C1C3(C)C)[C@]1(OC(C)=O)CO[C@@H]1C[C@@H]2O,0.882 ± 0.057
